The source of these data is publication PMC2669129.

The chains behind the UniProt entries cited, without tags or fusion partners.
UniProt P11388: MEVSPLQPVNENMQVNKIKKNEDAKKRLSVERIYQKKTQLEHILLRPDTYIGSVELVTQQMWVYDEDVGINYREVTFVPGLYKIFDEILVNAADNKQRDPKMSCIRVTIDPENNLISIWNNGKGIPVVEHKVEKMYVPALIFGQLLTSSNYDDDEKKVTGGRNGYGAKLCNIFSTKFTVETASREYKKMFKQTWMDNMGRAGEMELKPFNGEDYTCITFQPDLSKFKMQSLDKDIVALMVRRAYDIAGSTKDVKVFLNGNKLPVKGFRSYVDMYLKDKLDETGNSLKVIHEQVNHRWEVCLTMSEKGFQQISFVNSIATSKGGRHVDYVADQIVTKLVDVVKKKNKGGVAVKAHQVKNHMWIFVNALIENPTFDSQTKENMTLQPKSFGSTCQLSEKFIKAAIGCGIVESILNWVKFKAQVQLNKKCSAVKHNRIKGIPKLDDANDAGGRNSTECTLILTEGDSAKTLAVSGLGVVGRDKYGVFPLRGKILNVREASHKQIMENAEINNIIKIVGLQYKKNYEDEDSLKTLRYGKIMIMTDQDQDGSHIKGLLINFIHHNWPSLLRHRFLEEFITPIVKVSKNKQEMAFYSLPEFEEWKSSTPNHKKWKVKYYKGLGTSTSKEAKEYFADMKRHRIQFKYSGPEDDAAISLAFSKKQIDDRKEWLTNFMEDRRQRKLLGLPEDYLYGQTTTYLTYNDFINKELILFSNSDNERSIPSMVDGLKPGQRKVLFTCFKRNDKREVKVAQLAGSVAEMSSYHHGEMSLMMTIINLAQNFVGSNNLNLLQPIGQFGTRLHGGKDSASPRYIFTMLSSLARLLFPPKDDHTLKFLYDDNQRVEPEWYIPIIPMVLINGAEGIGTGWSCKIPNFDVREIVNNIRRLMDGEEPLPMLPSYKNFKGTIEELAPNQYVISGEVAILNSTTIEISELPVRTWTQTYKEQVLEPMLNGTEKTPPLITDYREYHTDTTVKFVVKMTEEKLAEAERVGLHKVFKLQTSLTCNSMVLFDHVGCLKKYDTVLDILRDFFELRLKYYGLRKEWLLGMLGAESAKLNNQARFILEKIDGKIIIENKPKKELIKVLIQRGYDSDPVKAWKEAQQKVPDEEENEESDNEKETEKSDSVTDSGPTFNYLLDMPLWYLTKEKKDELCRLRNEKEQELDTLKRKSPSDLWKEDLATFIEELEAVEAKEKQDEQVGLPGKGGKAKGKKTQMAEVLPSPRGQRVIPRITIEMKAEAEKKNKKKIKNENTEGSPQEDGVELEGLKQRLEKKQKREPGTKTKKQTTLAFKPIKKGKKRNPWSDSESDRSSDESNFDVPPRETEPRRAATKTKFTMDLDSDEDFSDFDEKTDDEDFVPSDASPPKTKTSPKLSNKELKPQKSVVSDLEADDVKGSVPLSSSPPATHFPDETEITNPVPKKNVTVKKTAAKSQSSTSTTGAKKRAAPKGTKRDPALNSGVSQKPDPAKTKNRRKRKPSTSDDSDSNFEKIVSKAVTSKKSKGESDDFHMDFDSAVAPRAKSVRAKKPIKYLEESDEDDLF

Results are given in words; binding and its absence hold for the method and conditions named. In cells and extracts the contact can be indirect. Some binding calls cover weakened binding; strength is not graded here.

For the test, the target named is Topoisomerase IIα (human (endogenous in MDA-MB-231)) (UniProt P11388). As to the kind of experiment: co-IP; Metnase and Topo IIα immunoprecipitated from MDA-MB-231 cells, Western blot; anti-Topo IIα (Topogen); in the presence of 1.0 U/mL DNase I. For orientation: A western blot detects proteins with antibodies after separation by electrophoresis.

B1: Metnase (protein, UniProt Q53H47 1-684)
chain: MFAEAAKTTRPCGMAEFKEKPEAPTEQLDVACGQENLPVGAWPPGAAPAPFQYTPDHVVGPGADIDPTQITFPGCICVKTPCLPGTCSCLRHGENYDDNSCLRDIGSGGKYAEPVFECNVLCRCSDHCRNRVVQKGLQFHFQVFKTHKKGWGLRTLEFIPKGRFVCEYAGEVLGFSEVQRRIHLQTKSDSNYIIAIREHVYNGQVMETFVDPTYIGNIGRFLNHSCEPNLLMIPVRIDSMVPKLALFAAKDIVPEEELSYDYSGRYLNLTVSEDKERLDHGKLRKPCYCGAKSCTAFLPFDSSLYCPVEKSNISCGNEKEPSMCGSAPSVFPSCKRLTLETMKMMLDKKQIRAIFLFEFKMGRKAAETTRNINNAFGPGTANERTVQWWFKKFCKGDESLEDEERSGRPSEVDNDQLRAIIEADPLTTTREVAEELNVNHSTVVRHLKQIGKVKKLDKWVPHELTENQKNRRFEVSSSLILRNHNEPFLDRIVTCDEKWILYDNRRRSAQWLDQEEAPKHFPKPILHPKKVMVTIWWSAAGLIHYSFLNPGETITSEKYAQEIDEMNQKLQRLQLALVNRKGPILLHDNARPHVAQPTLQKLNELGYEVLPHPPYSPDLLPTNYHVFKHLNNFLQGKRFHNQQDAENAFQEFVESQSTDFYATGINQLISRWQKCVDCNGSYFD
With B1, the binding entry is reported as “binds”.
